Data taken from paper PMC13308598.
No constants are given. Whether binding was seen depends on the method and setting. Binding seen in cells or lysates may run through a third protein. Some results given as binding are weak or reduced against the parent protein; the word gives no strength.

Chains of the proteins cited; added tags and fusions are not shown.
UniProt Q8C0Y1: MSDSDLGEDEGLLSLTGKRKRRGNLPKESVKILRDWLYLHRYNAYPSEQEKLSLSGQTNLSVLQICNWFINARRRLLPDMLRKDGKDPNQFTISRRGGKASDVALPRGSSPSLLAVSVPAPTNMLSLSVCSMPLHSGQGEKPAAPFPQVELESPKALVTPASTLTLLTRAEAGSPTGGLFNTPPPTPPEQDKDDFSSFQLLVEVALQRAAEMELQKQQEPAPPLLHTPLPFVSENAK
UniProt O09106: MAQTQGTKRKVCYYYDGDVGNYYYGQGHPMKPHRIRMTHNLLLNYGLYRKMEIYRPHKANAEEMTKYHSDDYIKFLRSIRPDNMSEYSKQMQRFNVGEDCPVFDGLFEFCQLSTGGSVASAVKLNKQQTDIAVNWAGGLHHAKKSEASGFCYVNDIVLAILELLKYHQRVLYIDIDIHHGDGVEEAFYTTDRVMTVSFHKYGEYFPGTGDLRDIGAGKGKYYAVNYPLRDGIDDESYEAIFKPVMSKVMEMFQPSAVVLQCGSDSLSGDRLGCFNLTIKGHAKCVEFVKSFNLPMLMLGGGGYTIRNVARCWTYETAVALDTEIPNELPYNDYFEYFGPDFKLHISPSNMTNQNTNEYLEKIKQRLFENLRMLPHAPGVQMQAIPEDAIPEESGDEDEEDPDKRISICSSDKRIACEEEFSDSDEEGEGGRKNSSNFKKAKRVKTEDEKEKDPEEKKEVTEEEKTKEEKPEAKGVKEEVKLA
UniProt P70288: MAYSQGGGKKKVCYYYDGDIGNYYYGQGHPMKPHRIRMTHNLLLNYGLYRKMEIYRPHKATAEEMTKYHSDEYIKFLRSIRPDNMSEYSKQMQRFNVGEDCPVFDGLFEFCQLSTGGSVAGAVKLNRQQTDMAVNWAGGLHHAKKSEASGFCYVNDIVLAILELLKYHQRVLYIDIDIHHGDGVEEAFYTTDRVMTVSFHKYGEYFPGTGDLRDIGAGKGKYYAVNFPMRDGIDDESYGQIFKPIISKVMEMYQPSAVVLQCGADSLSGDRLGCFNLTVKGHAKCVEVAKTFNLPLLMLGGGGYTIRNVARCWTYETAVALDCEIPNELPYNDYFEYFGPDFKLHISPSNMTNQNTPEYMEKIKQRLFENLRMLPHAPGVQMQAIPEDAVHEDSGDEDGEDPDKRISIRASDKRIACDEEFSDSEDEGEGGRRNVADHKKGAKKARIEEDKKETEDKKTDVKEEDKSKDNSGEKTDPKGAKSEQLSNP

B1: SIN3 transcription regulator family member A (protein, UniProt Q60520 1-1274)
chain: MKRRLDDQESPVYAAQQRRIPGSTEAFSHQHRVLAPAPPVYEAVSETMQSATGIQYSVAPNYQVSAVPQSSGSHGPAIAAVHSSHHHPTAVQPHGGQVVQSHAHPAPPVAPVQGQQQFQRLKVEDALSYLDQVKLQFGSQPQVYNDFLDIMKEFKSQSIDTPGVISRVSQLFKGHPDLIMGFNTFLPPGYKIEVQTNDMVNVTTPGQVHQIPTHGIQPQPQPPPQHPSQPSSQSAPTPAQPAPQPTAAKVSKPSQLQAHTPASQQTPPLPPYASPRSPPVQPHTPVTISLGTAPSLQNNQPVEFNHAINYVNKIKNRFQGQPDIYKAFLEILHTYQKEQRNAKEAGGNYTPALTEQEVYAQVARLFKNQEDLLSEFGQFLPDANSSVLLSKTTAEKVDSVRNDHGGTVKKPQLNNKPQRPSQNGCQIRRHSGTGATPPVKKKPKLMSLKESSMADASKHGVGTESLFFDKVRKALRSAEAYENFLRCLVIFNQEVISRAELVQLVSPFLGKFPELFNWFKNFLGYKESVHLESFPKERATEGIAMEIDYASCKRLGSSYRALPKSYQQPKCTGRTPLCKEVLNDTWVSFPSWSEDSTFVSSKKTQYEEHIYRCEDERFELDVVLETNLATIRVLEAIQKKLSRLSAEEQAKFRLDNTLGGTSEVIHRKALQRIYADKAADIIDGLRKNPSIAVPIVLKRLKMKEEEWREAQRGFNKVWREQNEKYYLKSLDHQGINFKQNDTKVLRSKSLLNEIESIYDERQEQATEENAGVPVGPHLSLAYEDKQILEDAAALIIHHVKRQTGIQKEDKYKIKQIMHHFIPDLLFAQRGDLSDVEEEEEEEMDVDEATGAPKKHNGVGGSPPKSKLLFSNTAAQKLRGMDEVYNLFYVNNNWYIFMRLHQILCLRLLRICSQAERQIEEENREREWEREVLGIKRDKSDSPAIQLRLKEPMDVDVEDYYPAFLDMVRSLLDGNIDSSQYEDSLREMFTIHAYIAFTMDKLIQSIVRQLQHIVSDEVCVQVTDLYLAENNNGATGGQLNSQTSRSLLESAYQRKAEQLMSDENCFKLMFIQSQGQVQLTVELLDTEEENSDDPVEAERWSDYVERYMSSDTTSPELREHLAQKPVFLPRNLRRIRKCQRGREQQEKEGKEGNSKKTMENVESLDKLECRFKLNSYKMVYVIKSEDYMYRRTALLRAHQSHERVSKRLHQRFQAWVDKWTKEHVPREMAAETSKWLMGEGLEGLVPCTTTCDTETLHFVSINKYRVKYGTVFKAP

Biological target: triple-Flag–tagged TGIF2a (transforming growth factor–β–induced homeobox factor 2, isoform a) (UniProt Q8C0Y1)
Experiment: co-IP; N2A cells transfected, lysed after 48 hours in nondenaturing buffer (20 mM tris-HCl pH 8.0, 137 mM NaCl, 1% NP-40, 2 mM EDTA); anti-FLAG antibody or rabbit IgG isotype control, Protein G Dynabeads, 4°C; Western blot for HDAC1, HDAC2, SIN3A and FLAG

binding, binds:
HDAC1 (from UniProt O09106 1-482)
HDAC2 (from UniProt P70288 1-488)
B1
